# Assay results

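Genome-wide siRNA knockdown in TC32 Ewing sarcoma cells, comparing luciferase light from an NR0B1-promoter reporter with a CMV-promoter reporter 48 hours after transfection. Each siRNA was applied at 20 nM. A z-score of the log NR0B1-over-CMV signal, less the median of siRNAs with the same seed; more negative means a stronger specific loss of the NR0B1 reporter.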

The strongest results of the screen are mostly left out here. Sequences are the guide (antisense) strand, without overhang.

| siRNA | target gene | seed-corrected z-score |
|---|---|---|
| `ACAGGGAUCAUCACUCGCU` | DNAJA3 | 0.06023 |
| `UCAGGGUCAACCUUAAGCU` | UBE2Q2P1 | 0.09568 |
| `UUGCGUGCCGUGUUCAUUG` | UCKL1 | 0.006477 |
| `UAUUCUACUUGGGUGUUAC` | TTC26 | 0.1129 |
| `UAAGGAGUAAUACAUCCCG` | KCNC1 | -0.2466 |
| `UCUUCUACAACCAACUGCC` | COL4A3BP | -1.31 |
| `ACACUGUUUAAUUAGGUCU` | LYRM1 | 0.2274 |
| `UUUGUUUAUACCUCUUCCC` | ADCYAP1 | 0.1193 |
| `UAUACGAGAAUUAACAGUC` | REV3L | 0.6508 |
| `AAUAUACUCCUGCAAAUCC` | SLC35A1 | -0.904 |
| `UCUGGUCCAACGACUUGAG` | HIPK4 | -0.1132 |
| `AUUGGUCCAAUCUUGUGCU` | NME4 | -0.784 |
| `AAUGUUCAGAAAACUAUCU` | TMEM133 | -0.3642 |
| `ACCUCCUCCAUUAAAGUCC` | KCNK6 | -0.8393 |
| `UACUCGUAAAUAAGGAAAU` | SCN3B | -0.1114 |
| `UUAGUUUUCCCGUCAGUCA` | LOC146880 | 2.472 |
| `UAAUCAGCACGAUUUCGCC` | HSD17B11 | 0.3115 |
| `AAUGGGAUUAGUAGGUUCA` | MYBPHL | -0.7892 |
| `UCACCGUAUAUUUAUUGCC` | CDHR3 | -0.1994 |
| `UCUGGGUCAAUUUCAAGGC` | CECR6 | 0.7194 |
| `UCUGGUUCAUUGGUCAUAG` | SERINC1 | -1.562 |
| `UUUUCGAAAAUAUCUGACA` | FAM210B | 0.8187 |
| `UUUGGUGUUACUCCACUUG` | VIL1 | 0.243 |
| `ACCAUUCACACCGAAGUCC` | AACS | 0.03091 |
| `UGGUUUUCCAUUCAUGUCC` | SORCS2 | 0.3794 |
| `UAUCAACUUUAGGUCAUUC` | IQCA1 | 0.6802 |
| `UAUCCUAUGAUUGGAGGUG` | NPAS2 | -1.128 |
| `UCCGCGAACAAGUCAUCCU` | RTN4RL2 | -0.4473 |
| `UAAUGAGUAUUAUCACUAC` | GYPB | -1.757 |
| `UGAACUUCAACCUUUCCAC` | TRIM44 | 0.0486 |
| `UUGCGUAGGACACACACCC` | TOR4A | 0.198 |
| `UACCUUUAGACCAAGGCUU` | CD1B | -0.02378 |
| `AAAUGUUUAACAAGUACCC` | C7orf73 | -1.647 |
| `UAAAGGUGCAAGAAGAGAG` | KAAG1 | -0.7975 |
| `AAAGAGUUGAGCAGCACGG` | C15orf56 | -0.2313 |
| `UUUCGCAAGGUGAAUAUCC` | SEL1L | 0.03121 |
| `UAUGGGACUCGAAAUCACG` | EIF3CL | 1.784 |
| `AACAAGAACAUGUCGUUCG` | CST7 | -0.0201 |
| `UUGCGUAUCUGUUUUGUCU` | OR52N5 | -0.4703 |
| `UAGAUGAUCACCUCCUUGU` | WDR90 | 0.7758 |
| `UCACCGUCUGAGUCCAUUC` | C9orf84 | -0.09677 |
| `UCCGUGAACACGCAGUCUU` | FGF17 | -0.1256 |
| `UGACUUAUCAUUCUUCAUC` | HNRNPC | -0.9162 |
| `UUCAAUGAAAGUAUCUCUG` | CTTNBP2NL | -1.311 |
| `UCUAUGUAAGCAGCUUUGC` | GFRAL | -0.3414 |
| `UAUGUAGUUGCUCCAGCCC` | OR52B6 | -1.031 |
| `UUGAUGUAGACCCUGUCCG` | MIF | -0.832 |
| `UUUGCCCUUGUGUGGAUGC` | DUX1 | -0.709 |
| `UCACCUGUAAAUGGAGUGC` | LOC389906 | -0.08794 |
| `UUUGUUUCUCCGUAUGGGC` | C9orf78 | -1.062 |
| `UUCUCAAUCUCCUGGAUGC` | RRP12 | 0.8438 |
| `AAAGAGAUAGUCUUGGUGC` | OR1C1 | 0.6753 |
| `UUGCUUUGCAUCAUGAACC` | SFI1 | -0.2197 |
| `UGCAAUGACAAGUAGAUCG` | POLE2 | -0.9809 |
| `UUCCGUAUUUGGAUUGUGC` | ADPRM | 0.4483 |
| `AACAUUGCUACCUAGAUGC` | SLITRK5 | 1.187 |
| `AACAAUAACAACACUGAGG` | OR10R2 | 1.25 |
| `UCUUCGUAAAUGAUGGUGC` | DCAF7 | 0.4083 |
| `UGAAUUCACAGACAAGUGG` | PRSS38 | -0.4273 |
| `UUGUGGAUAAUCGUUUCUC` | LRCH2 | -0.4671 |
| `UAACUUCACAAGCAUAGCC` | NKRF | -0.7833 |
| `UCAUGCUUCACAGACAGGG` | TXNDC2 | 0.6081 |
| `UCCUUAAGAAAUUGCAUCC` | RNF14 | 0.4136 |
| `AUUGUUUCCGUUUGUGCUC` | BCL11A | -1.869 |
| `UUAGGAGAUAAGGCUGGGA` | TSACC | -1.416 |
| `UUCCGUGGAACAUUCAAAG` | COL3A1 | -0.3675 |
| `UAGUGUGAGACAUGUAAGG` | TP53INP2 | 0.05882 |
| `UUGAGUAGCAGCAAGACGC` | BMPER | -0.1002 |
| `UACAUGAAAAUCUCAUAGA` | OR2T4 | 0.4112 |
| `ACUGAUAGCAGUUUUGUCC` | CLUL1 | -0.7993 |
| `UCACCAAAUAUACCCAGCG` | LGALS12 | 0.4576 |
| `UACUCGUUGUUUGUCCUGC` | ACADSB | -0.1126 |
| `AUCGCAACCAUUUUGCCCG` | LOC389842 | -0.3792 |
| `UAGAUGAUGAUAGGAACGG` | SLC35E2B | 1.527 |
| `UACUAUUCACCAAAUAUUC` | LINC01235 | -0.8233 |
| `UGUGCAACACCUUCGUUCC` | MECR | -0.1389 |
| `AUAGGUCAAGGUUCUAAAC` | LINC01561 | -0.7615 |
| `UUAUUGAGCAGCUACUGGG` | TRAPPC6A | 1.173 |
| `UUUGGAUAAAUCAGGACUC` | CPNE5 | -0.0002252 |

Once more, the final 10:

siRNA	target gene	seed-corrected z-score
ACUGAUAGCAGUUUUGUCC	CLUL1	-0.7993
UCACCAAAUAUACCCAGCG	LGALS12	0.4576
UACUCGUUGUUUGUCCUGC	ACADSB	-0.1126
AUCGCAACCAUUUUGCCCG	LOC389842	-0.3792
UAGAUGAUGAUAGGAACGG	SLC35E2B	1.527
UACUAUUCACCAAAUAUUC	LINC01235	-0.8233
UGUGCAACACCUUCGUUCC	MECR	-0.1389
AUAGGUCAAGGUUCUAAAC	LINC01561	-0.7615
UUAUUGAGCAGCUACUGGG	TRAPPC6A	1.173
UUUGGAUAAAUCAGGACUC	CPNE5	-0.0002252

The results are deposited in PubChem (AID1159506; NCATS, 2015).